The series deals with IgG antibody in serum. Description: Detection of human cancer: ELISA of serum IgG reacting with the immobilized polypeptide. The conditions noted are these: average. The format is binding. (In general: In an ELISA, binding on a coated surface is turned into a signal by an enzyme label.)

These results are taken from patent US8901082B2, “Immunity-inducing agent and method for detection of cancer” (Toray Industries, Inc., priority 2008, dated 2014).

B1: egg white albumin: positive control immobilized on the solid phase at 50 μg/ml (protein)
chain: GSIGAASMEFCFDVFKELKVHHANENIFYCPIAIMSALAMVYLGAKDSTRTQINKVVRFDKLPGFGDSIEAQCGTSVNVHSSLRDILNQITKPNDVYSFSLASRLYAEERYPILPEYLQCVKELYRGGLEPINFQTAADQARELINSWVESQTNGIIRNVLQPSSVDSQTAMVLVNAIVFKGLWEKAFKDEDTQAMPFRVTEQESKPVQMMYQIGLFRVASMASEKMKILELPFASGTMSMLVLLPDEVSGLEQLESIINFEKLTEWTSSNVMEERKIKVYLPRMKMEEKYNLTSVLMAMGITDVFSSSANLSGISSAESLKISQAVHAAHAEINEAGREVVGSAEAGVDAASVSEEFRADHPFLFCIKHIATNAVLFFGRCVSP
Regarding B1, the “absorbance at 450 nm” value (healthy individuals) is 0.45.

B2: human-derived cancer antigen protein: recombinant human CD179b protein, the amino acid sequence shown in SEQ ID NO:3 (protein, listed as Homo sapiens)
chain: LLRPTAASQSRALGPGAPGGSSRSSLRSRWGRFLLQRGSWTGPRCWPRGFQSKHNSVTHVFGSGTQLTVLSQPKATPSVTLFPPSSEELQANKATLVCLMNDFYPGILTVTWKADGTPITQGVEMTTPSKQSNNKYAASSYLSLTPEQWRSRRSYSCQVMHEGSTVEKTVAPAECS
As to B2, the “absorbance at 450 nm” value came out at 0.28 (17 malignant breast cancer patients) and 0 (healthy individuals).
